Data taken from publication PMC7863910, “A novel stress-inducible CmtR-ESX3-Zn^2+ regulatory pathway essential for survival of Mycobacterium bovis under oxidative stress” (The Journal of Biological Chemistry, 2020).
Where a protein sequence is shown, tags need not be part of it.

How the values were obtained:
Zur = target: T1, Zur (UniProt P9WN85); assay: EMSA; conditions: recombinant protein, residues 1-130, protein details: His-SUMO (pET28a-Sumo), cleaved by ULP1, probe letters rebuilt from the primers and the genome
T1 sequence (looked up): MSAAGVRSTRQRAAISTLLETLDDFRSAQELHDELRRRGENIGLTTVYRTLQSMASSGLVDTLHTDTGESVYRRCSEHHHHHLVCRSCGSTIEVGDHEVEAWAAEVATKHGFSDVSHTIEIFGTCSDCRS

CmtR = target: T2, CmtR (UniProt P9WMI9); assay: EMSA; conditions: recombinant protein, residues 1-118, probe letters rebuilt from the primers and the genome
T2 sequence (looked up): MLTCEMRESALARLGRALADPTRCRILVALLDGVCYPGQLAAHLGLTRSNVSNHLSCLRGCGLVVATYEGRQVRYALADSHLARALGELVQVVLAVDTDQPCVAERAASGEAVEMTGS

Sequence	binding result (Zur; + MabR (no effect))	binding result (Zur; Zur 1 uM)	binding result (CmtR; 10 mM DTT)	binding result (CmtR; CmtR 1.6-8.0 uM)	binding result (CmtR; H2O2 + DTT (inhibition reversed))
ACTGGCTAAATCCGTTGCCGCTGCCGCGATAACCTCTGGCGCCGCAATCACAAACGACATCTGACACCTCCCAATACGCATGACCGCTCTGTCATGCCGACCCGGGGAACGTCACCAGCAAAAATCGGCGGGCTACAGAATAACTCCGGCCCGGGAAAGGGATTTGGTATTTCCCAAAATATCTCCCACATTTATGCGGTCGGCGCGTCGGCCGACGGGAGCTGGCAGCACCCGTGGGCCGGCGCCGAGCGTTCGCTGGTGTCCGGCTGGGACTTGCATTGCGGCGCGCCGTGGTGTGGAATAGTGGTAATGAAAATCATGTTCATCAGTCCTCTGTGGTGTTTACGGCT (double strand) [rv0280p]	binds	binds			
GATTCCCGCATCTCACACGTCAGCATAGATCAAATAGTACACCATATACTGGTATAACAGCAAGAGCTGAATTGTACATCCATAGCAGATATGATCGGCGCGCGTCACAAGCTTCCGGCCGCAGAGCCGCCAACTCACGATATCGTTAACCGATATCCCGAGCCGATAGCTGGCGGGCTCGGGTGGTGGCCAGCGGCGCTGCGACGAAAGGTGTGACCGTCATGAAACAGACACCACCGGCGGCCGTCGGCCGTCGTCACCTGCTCGAGATCTCAGCATCCGCAGCCGGTGTGATCGCGCTTTCGGCGTGTAGTGGGTCGCCGCCCGAGCCCGGCAAAGGCCGGCCCGACACAACCCCGGAACAGGAAGTCCC (double strand) [cmtRp]			binds	binds	binds
